According to publication PMC10366545, “Phosphoregulation of DNA repair via the Rad51 auxiliary factor Swi5–Sfr1” (The Journal of Biological Chemistry, 2023):
These are yes or no findings as the source states them, for the method shown. Binding can be weak; no strength is given.

Chains of the proteins cited; added tags and fusions are not shown. Lines headed by an entry give the natural chain unless they say otherwise; changes in a name come on top.
UniProt Q9USV1: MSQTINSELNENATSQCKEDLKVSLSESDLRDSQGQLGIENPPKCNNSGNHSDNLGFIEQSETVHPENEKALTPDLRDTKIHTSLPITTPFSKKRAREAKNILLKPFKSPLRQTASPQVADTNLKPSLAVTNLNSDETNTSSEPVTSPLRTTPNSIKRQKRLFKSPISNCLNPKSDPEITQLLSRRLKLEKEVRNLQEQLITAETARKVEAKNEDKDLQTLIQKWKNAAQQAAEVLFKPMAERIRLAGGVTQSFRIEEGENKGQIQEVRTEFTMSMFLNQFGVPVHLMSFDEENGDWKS

How the values were obtained:
Rad51 (S. pombe) = molecular target: T1, Rad51 (S. pombe) (UniProt P36601); assay: pull-down; filament binding assay: Rad51 (3.33 μM) filaments on circular ssDNA (10 μMnt) held on streptavidin beads through a biotinylated oligonucleotide; 3.33 μM S5S1 added, 5 min 37 °C; 25 mM Tris-Cl 7.5, 100 mM NaCl, 3.5 mM MgCl2, 2 mM ATP, 0.5 mM TCEP, 5% glycerol, 0.05% Tween-20; Sfr1 signal normalised to Rad51, relative to wildtype, n = 3; both purified
T1 sequence: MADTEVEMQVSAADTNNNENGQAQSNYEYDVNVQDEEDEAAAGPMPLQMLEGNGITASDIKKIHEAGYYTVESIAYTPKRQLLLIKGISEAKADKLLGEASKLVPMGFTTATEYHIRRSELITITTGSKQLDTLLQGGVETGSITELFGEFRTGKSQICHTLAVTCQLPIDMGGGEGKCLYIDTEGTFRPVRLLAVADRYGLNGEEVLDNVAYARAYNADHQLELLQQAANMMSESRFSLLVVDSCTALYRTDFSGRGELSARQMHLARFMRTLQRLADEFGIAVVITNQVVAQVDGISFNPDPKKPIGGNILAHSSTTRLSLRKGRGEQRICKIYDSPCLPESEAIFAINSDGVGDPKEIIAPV

[1] = molecular target: Sfr1 7A mutant (Sfr1 chain of S5S1-7A) (S. pombe) (UniProt Q9USV1); assay: SEC; His6-Sfr1 co-expressed with Swi5 in E. coli and purified together as a complex; 16/60 Superdex 200 pg in H buffer (25 mM Hepes-KOH pH 7.5, 10% glycerol, 0.5 mM TCEP) with 200 mM KCl, 4 °C; both purified
[2] = molecular target: Swi5–Sfr1 Rad51 interaction mutant complex (S5S1-7A) (S. pombe); assay: pull-down; in solution; nickel resin holds hexahistidine-tagged S5S1; 500 nM each protein; 30 mM Tris-Cl 7.5, 100 mM KCl, 5 mM MgCl2, 1 mM ATP, 0.25 mM TCEP, 5% glycerol, 0.05% Tween-20; 30 °C 15 min, then resin 1 h at 4 °C; SDS-PAGE, Coomassie; both purified

Swi5–Sfr1 Rad51 interaction mutant complex (S5S1-7A) (S. pombe)
binding (Rad51 (S. pombe)): binds weakly

B1: Swi5 (protein, UniProt Q9UUB7 1-85)
chain: MEKSQLESRVHLLEQQKEQLESSLQDALAKLKNRDAKQTVQKHIDLLHTYNEIRDIALGMIGKVAEHEKCTSVELFDRFGVNGSE
binding [1]: binds

B2: Rad51 (natural protein, S. pombe, UniProt P36601 1-365, looked up)
chain: T1 sequence
notes: Rad51 recombinase, S. pombe; also called S. pombe Rad51; Rad51-ssDNA filament
binding [2]: binds weakly
